Results are given in words; binding and its absence hold for the method and conditions named. For some of these results: In cells and extracts the contact can be indirect. Some entries that bind do so weakly or less than the wild type. For some of these results: Where a sequence is shown, tags or fusion partners need not be part of it. One block for each molecule: values may come before it.
Key:
MBP-45-532-Jacob (rat) = target: T1, MBP-45-532-Jacob (rat) (UniProt Q9EPI6); assay: pull-down; amylose-MBP-45-532-Jacob incubated with HEK293T cell extract expressing CRM1 overnight at 4 °C; Western blot; only the target purified
T1 sequence: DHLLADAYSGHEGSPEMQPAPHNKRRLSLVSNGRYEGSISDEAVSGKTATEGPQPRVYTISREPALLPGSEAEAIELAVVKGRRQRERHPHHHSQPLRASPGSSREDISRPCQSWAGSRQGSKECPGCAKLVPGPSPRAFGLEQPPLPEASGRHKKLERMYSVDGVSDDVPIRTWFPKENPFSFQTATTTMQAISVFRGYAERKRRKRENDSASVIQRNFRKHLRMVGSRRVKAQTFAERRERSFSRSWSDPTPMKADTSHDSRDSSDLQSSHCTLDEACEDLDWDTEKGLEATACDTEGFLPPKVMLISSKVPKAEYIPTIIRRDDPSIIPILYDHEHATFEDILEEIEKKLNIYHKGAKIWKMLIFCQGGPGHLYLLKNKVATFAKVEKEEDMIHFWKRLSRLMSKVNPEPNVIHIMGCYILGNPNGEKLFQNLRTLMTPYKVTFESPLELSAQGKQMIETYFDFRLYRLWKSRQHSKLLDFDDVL

Chains of the proteins cited; added tags and fusions are not shown.
UniProt O14980: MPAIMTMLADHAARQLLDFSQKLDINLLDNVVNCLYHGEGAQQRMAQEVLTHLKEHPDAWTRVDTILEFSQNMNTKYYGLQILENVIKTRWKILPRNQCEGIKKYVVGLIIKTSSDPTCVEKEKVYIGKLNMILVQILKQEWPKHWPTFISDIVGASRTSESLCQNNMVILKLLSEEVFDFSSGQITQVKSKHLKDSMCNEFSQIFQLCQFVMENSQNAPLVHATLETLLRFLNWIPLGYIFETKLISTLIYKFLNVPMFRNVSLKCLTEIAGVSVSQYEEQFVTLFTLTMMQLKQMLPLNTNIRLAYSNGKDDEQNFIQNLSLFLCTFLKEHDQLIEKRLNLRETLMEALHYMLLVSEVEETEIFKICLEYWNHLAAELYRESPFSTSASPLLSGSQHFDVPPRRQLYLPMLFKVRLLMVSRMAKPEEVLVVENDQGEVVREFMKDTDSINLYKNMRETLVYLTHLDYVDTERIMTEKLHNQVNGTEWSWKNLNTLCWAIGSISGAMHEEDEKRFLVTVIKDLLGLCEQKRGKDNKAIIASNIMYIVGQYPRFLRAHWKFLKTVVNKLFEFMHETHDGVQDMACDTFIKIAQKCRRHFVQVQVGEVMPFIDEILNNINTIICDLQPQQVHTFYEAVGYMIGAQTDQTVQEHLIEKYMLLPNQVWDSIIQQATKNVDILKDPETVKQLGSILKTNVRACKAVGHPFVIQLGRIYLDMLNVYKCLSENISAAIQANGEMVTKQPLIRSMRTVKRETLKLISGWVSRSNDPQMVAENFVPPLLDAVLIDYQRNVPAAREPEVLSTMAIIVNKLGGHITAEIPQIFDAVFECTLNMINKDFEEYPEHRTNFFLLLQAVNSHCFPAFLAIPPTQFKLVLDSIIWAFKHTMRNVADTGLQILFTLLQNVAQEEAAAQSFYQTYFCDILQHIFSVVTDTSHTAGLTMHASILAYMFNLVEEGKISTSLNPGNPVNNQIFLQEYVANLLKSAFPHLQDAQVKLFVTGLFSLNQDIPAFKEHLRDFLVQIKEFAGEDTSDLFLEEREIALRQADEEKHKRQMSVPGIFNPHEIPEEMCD
UniProt P20700: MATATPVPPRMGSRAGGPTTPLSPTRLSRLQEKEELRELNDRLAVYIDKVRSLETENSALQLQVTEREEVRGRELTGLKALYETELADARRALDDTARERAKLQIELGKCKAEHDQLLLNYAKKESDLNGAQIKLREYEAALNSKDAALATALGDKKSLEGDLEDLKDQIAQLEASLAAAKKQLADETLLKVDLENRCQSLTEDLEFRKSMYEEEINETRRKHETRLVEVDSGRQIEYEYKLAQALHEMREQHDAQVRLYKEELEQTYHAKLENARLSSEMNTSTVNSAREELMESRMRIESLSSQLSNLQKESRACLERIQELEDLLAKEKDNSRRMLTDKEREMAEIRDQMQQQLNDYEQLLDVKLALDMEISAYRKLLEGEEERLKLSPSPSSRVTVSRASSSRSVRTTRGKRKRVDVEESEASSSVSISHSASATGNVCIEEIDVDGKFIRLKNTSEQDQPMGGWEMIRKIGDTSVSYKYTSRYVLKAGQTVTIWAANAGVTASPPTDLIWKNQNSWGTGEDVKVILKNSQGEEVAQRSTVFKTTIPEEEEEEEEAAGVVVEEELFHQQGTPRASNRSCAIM

WT-Jacob-Myc (rat) = target: T2, WT-Jacob-Myc (rat) (UniProt Q9EPI6); assay: co-IP; HEK293T cells co-transfected with WT-Jacob-Myc and TagRFP-LaminB1; lysis in RIPA buffer (50 mM Tris-HCl pH 7.4, 150 mM NaCl, 1% Triton X-100, 0.1% SDS); anti-Myc antibody-coated magnetic beads; Western blot
T2 sequence: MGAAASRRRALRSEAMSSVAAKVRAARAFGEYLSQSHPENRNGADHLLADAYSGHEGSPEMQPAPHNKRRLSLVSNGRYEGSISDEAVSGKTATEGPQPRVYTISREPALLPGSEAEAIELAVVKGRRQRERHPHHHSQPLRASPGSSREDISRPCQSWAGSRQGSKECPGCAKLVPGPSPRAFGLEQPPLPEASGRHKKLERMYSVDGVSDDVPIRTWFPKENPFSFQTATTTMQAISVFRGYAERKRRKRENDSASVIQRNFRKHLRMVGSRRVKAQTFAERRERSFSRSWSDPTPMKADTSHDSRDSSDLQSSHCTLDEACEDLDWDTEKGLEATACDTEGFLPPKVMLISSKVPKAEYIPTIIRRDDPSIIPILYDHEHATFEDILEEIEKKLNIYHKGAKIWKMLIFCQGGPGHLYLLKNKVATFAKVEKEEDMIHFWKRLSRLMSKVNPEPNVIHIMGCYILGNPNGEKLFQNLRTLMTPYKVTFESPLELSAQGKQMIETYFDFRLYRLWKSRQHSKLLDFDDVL

[1] = target: T3, MBP-45-532-Jacob-L476A (rat) (UniProt Q9EPI6); assay: pull-down; amylose-MBP matrix alone or coupled with MBP-Jacob proteins, washed in 20 mM Tris pH 7.5, 1 mM DTT, 3 mM EDTA, 100 mM NaCl, 0.3% TritonX-100; incubated with 20 μg of untagged LaminB1 or untagged CRM1 overnight at 4 °C; Western blot; both purified
T3 sequence: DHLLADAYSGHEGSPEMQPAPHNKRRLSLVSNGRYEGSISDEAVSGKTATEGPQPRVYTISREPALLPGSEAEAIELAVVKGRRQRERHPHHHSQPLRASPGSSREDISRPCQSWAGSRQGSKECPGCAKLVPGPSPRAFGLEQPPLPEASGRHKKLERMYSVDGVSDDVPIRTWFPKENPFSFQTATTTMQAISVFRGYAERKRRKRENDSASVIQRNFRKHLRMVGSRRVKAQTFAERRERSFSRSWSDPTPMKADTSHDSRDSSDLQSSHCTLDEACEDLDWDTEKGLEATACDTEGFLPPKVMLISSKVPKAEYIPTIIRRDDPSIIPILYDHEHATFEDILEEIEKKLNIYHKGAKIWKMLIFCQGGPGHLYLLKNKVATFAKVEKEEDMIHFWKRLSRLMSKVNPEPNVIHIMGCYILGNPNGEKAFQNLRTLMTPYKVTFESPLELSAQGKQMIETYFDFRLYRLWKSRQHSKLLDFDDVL

[2] = target: T4, Jacob (endogenous) (rat (endogenous in hippocampal primary neurons)) (UniProt Q9EPI6); assay: proximity ligation; Duolink PLA with anti-Jacob and anti-LaminB1 antibodies in fixed rat hippocampal primary neurons; confocal and STED imaging
T4 sequence: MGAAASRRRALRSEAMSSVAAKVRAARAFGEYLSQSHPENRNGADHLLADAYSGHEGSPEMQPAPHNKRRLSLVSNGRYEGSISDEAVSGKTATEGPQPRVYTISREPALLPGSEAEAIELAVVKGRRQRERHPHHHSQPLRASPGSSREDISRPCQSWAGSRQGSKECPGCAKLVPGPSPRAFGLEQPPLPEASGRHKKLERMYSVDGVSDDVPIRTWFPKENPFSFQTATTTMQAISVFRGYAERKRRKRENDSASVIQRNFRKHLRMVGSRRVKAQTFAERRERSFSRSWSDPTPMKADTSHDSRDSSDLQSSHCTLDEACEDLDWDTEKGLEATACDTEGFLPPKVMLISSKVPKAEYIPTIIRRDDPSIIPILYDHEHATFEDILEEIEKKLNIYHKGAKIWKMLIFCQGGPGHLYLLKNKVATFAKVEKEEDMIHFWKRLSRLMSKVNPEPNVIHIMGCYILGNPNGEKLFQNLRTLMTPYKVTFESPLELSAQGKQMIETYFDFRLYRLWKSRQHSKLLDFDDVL

binding (MBP-45-532-Jacob (rat)): binds
Molecule: CRM1 in HEK293T cell extract (from UniProt O14980 1-1071)

binding (WT-Jacob-Myc (rat)): binds
Molecule: mTagRFP-hLaminB1 (from UniProt P20700 1-586)

Molecule: untagged-CRM1 (from UniProt O14980 1-1071)
binding [1]: no binding (tested: 20 μg of untagged CRM1)

binding [2]: binds
B1: LaminB1 (endogenous) (protein, UniProt P70615 1-587)
chain: MATATPVQQRAGSRASAPATPFSPTRLSRLQEKEELRELNDRLAVYIDKVRSLETENSALQLQVTEREEVRGRELTGLKALYETELADARRALDDTARERAKLQIELGKFKAEHDQLLLNYAKKESDLSGAQIKLREYEAALNSKDAALATALGDKKSLEGDLEDLKDQIAQLEASLSAAKKQLADETLLKVDLENRCQSLTEDLEFRKNMYEEEINETRRKHETRLVEVDSGRQIEYEYKLAQALHEMREQHDAQVRLYKEELEQTYHAKLENARLSSEMNTSTVNSARGGMMESRMRIESLSSQLSNLQKDSRACLERIQELEDMLAKERDNSRRMLSDKEREMAEIRDQMQQQLNDYEQLLDVKLALDMEISAYRKLLEGEEERLKLSPSPSSRVTVSRASSSRSVRTTRGKRKRVDVEESEASSSVSISHSASATGNVCIEEIDVDGKFIRLKNTSEQDQPMGGWEMIRKIGDTSVSYKYTSRYVLKAGQTVTVWAANAGVTASPPTDLIWKNQNSWGTGEDVKVVLKNSQGEEVAQRSTVFKTTIPEEEEEEEEEPIGVPLEEERFHQQGTPRASNKSCAIM
